The target in the assay is HA-tagged DEAD-box polypeptide 3, X-linked (DDX3) (UniProt O00571). Nature of the assay: affinity purification with mass spectrometry; mitochondrial fractions (2 mg protein) of HA-DDX3-overexpressing BT549 cells treated with or without CCCP (10 uM, 6 h), immunoprecipitated with anti-HA antibody (2 ug), SDS-PAGE, trypsin digestion, nano LC-MS/MS.

Protein sequences, listed by entry. Tags and fused reporters are not part of them.
UniProt O00571: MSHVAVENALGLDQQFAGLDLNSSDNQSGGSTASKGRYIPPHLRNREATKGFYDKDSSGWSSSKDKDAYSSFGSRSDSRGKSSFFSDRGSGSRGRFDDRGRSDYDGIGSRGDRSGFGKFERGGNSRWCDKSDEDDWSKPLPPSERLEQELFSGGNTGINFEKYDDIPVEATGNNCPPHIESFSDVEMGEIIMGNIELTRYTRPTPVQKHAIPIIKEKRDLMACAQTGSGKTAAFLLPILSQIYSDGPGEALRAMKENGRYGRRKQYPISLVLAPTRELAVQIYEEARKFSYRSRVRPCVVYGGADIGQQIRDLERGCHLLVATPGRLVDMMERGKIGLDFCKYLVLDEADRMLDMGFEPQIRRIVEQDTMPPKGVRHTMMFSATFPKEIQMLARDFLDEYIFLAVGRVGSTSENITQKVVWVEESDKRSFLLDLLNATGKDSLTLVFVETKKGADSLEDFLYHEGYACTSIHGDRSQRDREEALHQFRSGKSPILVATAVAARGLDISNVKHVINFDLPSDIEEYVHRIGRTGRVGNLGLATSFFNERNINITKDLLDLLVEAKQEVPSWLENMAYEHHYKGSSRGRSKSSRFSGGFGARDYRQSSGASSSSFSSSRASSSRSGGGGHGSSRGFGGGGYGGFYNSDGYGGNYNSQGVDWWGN
UniProt O00429: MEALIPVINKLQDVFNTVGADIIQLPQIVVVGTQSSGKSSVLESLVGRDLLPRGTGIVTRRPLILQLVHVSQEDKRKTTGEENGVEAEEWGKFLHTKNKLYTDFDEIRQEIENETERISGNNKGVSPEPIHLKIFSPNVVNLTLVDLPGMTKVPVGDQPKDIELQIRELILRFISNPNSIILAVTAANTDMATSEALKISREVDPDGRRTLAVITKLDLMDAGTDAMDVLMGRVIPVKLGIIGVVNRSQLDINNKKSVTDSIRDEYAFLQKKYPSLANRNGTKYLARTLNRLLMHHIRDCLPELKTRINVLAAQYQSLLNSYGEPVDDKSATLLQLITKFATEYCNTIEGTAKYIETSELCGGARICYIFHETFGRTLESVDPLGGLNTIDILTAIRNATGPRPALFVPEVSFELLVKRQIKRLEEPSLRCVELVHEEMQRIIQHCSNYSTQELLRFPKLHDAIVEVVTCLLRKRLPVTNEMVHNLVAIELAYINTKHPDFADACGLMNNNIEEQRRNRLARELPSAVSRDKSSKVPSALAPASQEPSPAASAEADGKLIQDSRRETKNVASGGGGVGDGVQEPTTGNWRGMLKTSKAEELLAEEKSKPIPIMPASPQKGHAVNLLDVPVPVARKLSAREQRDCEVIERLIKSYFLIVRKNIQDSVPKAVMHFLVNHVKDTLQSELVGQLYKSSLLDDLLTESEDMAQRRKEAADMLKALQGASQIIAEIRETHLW

Drawing on article PMC12410181, this text covers binding for 1 substance.

No constants are given. Whether binding was seen depends on the method and setting. In cells and extracts the contact can be indirect. A yes stands for co-enrichment or nearness to the bait. Other partners may have been found.

In the case of “dynamin-related protein 1 (DRP1), endogenous (from UniProt O00429 1-736)”, the binding entry is “binds”.
